Earlier results on one compound are cited in patent US20240180872A1, “METHODS AND COMPOUNDS OF CANNABIDIOL, MELATONIN AND AKBA FOR TREATING PANCREATIC CANCER” (priority 2021, published 2024).

Like-named read-outs stand apart in the source and are kept apart here.

The conditions of the series: cited from earlier work.

As to `COc1ccc2[nH]cc(CCNC(C)=O)c2c1` [MLT, N-[2-(5-methoxy-1H-indol-3-yl)ethyl]acetamide], the solubility entry was “very slightly soluble” (petroleum ether); “soluble” (water, ethanol, benzene, chloroform, methanol, DMSO, toluene, and dilute aqueous acid).
